Our source for the cell death values is the supplement of paper PMC12872613.

Structures can show the parent of a compound that is named as a salt. This is one part of the list. No stated cut-off is given here; in the data, active = 0.7 or more and inactive = the rest. Single values are uncertain, as repeats are few or missing.

In the experiment the test system is MiaPaCa-2 CLSA-25. Briefly: cell death relative to DMSO vehicle (fraction); higher = more cytotoxic. Particulars: 5 µM; treatment time 48 h; medium cystine 25 µM.
As to `NS(=O)(=O)c1cc2c(cc1Cl)N=C(CSCc1ccccc1)NS2(=O)=O` [Benzthiazide], the cell death was inactive: 0.129.

Take `C[C@]12CC[C@H](O)CC1=CC[C@@H]1[C@@H]2CC[C@]2(C)C(n3cnc4ccccc43)=CC[C@@H]12` [Galeterone]: the cell death was inactive: 0.283.

For `NC(=O)c1ccc[n+]([C@@H]2O[C@H](COP(=O)([O-])OP(=O)(O)OC[C@H]3O[C@@H](n4cnc5c(N)ncnc54)[C@H](O)[C@@H]3O)[C@@H](O)[C@H]2O)c1`, the cell death was inactive: 0.17.

Take `CCOC(=O)C1=C[C@]2(CC)CCCN3CCc4c(n1c1ccccc41)[C@@H]32` [Vinpocetine]: the cell death is inactive: 0.077.

As for `CC1(C)CC(=O)c2c(C(F)(F)F)nn(-c3ccc(C(N)=O)c(N[C@H]4CC[C@H](O)CC4)c3)c2C1`, the cell death was inactive: 0.411.

Consider `CCOC(=O)[C@@H](N)Cc1ccc(-c2cc(O[C@H](c3ccc(Cl)cc3-n3ccc(C)n3)C(F)(F)F)nc(N)n2)cc1` [Telotristat Etiprate], for which the cell death is inactive: 0.369.

Turning to `CC1=C(C)C(=O)C(C(CCCCCC(=O)O)c2ccccc2)=C(C)C1=O` (centres undefined) [Seratrodast], the cell death is inactive: 0.168.

For the compound `O=S(=O)(c1ccccc1)N(CC(F)(F)F)c1ccc(C(O)(C(F)(F)F)C(F)(F)F)cc1`, the cell death was inactive: 0.492.

Consider `CC(C)(Sc1cc(C(C)(C)C)c(O)c(C(C)(C)C)c1)Sc1cc(C(C)(C)C)c(OC(=O)CCC(=O)O)c(C(C)(C)C)c1` [Succinobucol], for which the cell death was inactive: 0.597.

`CC(C)(C)c1ccc(S(=O)(=O)NCc2ccc(C(=O)Nc3cccnc3)cc2)cc1`: the cell death was active: 0.805.

With `Cc1c(C)c2c(c(C)c1O)CCC(C)(COc1ccc(CC3SC(=O)NC3=O)cc1)O2` (centres undefined) [Troglitazone], the cell death is active: 0.807.

Turning to `CC(C)(C)C(=O)Oc1ccc(S(=O)(=O)Nc2ccccc2C(=O)NCC(=O)O)cc1` [Sivelestat], the cell death is inactive: 0.00776.

Turning to `OC[C@H]1OC(O)[C@@H](O)[C@@H](O)[C@@H]1O` (stereo partly drawn) [D-Mannose], the cell death was inactive: 0.627.

For `CC1(C)O[C@H]2CC(=O)OC[C@]23[C@H]2CC[C@@]4(C)[C@H](c5ccoc5)OC(=O)[C@H]5O[C@]54[C@]2(C)C(=O)C[C@@H]13` [Limonin], the cell death is inactive: -0.0155.

For `O.O.O.O.O=C([O-])CC(O)(CC(=O)[O-])C(=O)[O-].[Li+].[Li+].[Li+]` [Lithium citrate tribasic tetrahydrate], the cell death was inactive: 0.168.

As to `Oc1ccc(CC2NCCc3cc(O)c(O)cc32)cc1` (centres undefined) [Higenamine Hydrochloride], the cell death was inactive: 0.653.

Regarding `COc1ccc(/C=C/C=C2C(=O)NC(=O)NC2=O)cc1`, the cell death was active: 0.704.

With `COc1cccc(CNc2ccc(S(=O)(=O)Nc3nc4ccccc4s3)cc2)c1O`, the cell death is inactive: 0.492.

On to `CCN(CC)C(=O)Cc1csc(NS(=O)(=O)c2cccc(Cl)c2C)n1`, for which the cell death was inactive: 0.165.

Take `COc1ccc(NC(=O)c2ccc(C(=N)N(C)C)cc2)c(C(=O)Nc2ccc(Cl)cn2)c1` [Betrixaban]: the cell death was inactive: 0.208.

For the compound `C#CCN[C@@H]1CCc2ccccc21` [Rasagiline Mesylate], the cell death is inactive: 0.0372.

Turning to `CCCCCCCCCCC[C@@H](C[C@@H]1OC(=O)[C@H]1CCCCCC)OC(=O)[C@H](CC(C)C)NC=O` [Orlistat], the cell death was inactive: 0.362.

`OCCN1C[C@H](O)[C@@H](O)[C@H](O)[C@H]1CO` [Miglitol]: the cell death was inactive: 0.619.

With `CC(C)(NS(=O)(=O)c1ccc2c(Cl)cnc(N=C(N)N)c2c1)C(=O)O`, the cell death is inactive: 0.495.

Regarding `Cc1c(-c2cnccn2)ssc1=S` [Oltipraz], the cell death is inactive: 0.317.

As for `N#Cc1c(O)c2c(-c3ccc(-c4ccccc4O)cc3)csc2[nH]c1=O`, the cell death is inactive: 0.212.

For the compound `NC[C@@](O)(c1ccc(Cl)cc1)c1ccc(-c2cn[nH]c2)cc1`, the cell death was active: 0.82.

As for `O=C(Nc1ccncc1)c1cc([N+](=O)[O-])ccc1Cl`, the cell death is inactive: 0.338.

In the case of `O=S(=O)(O)Oc1ccc(C(c2ccc(OS(=O)(=O)O)cc2)c2ccccn2)cc1` [Sodium Picosulfate], the cell death was inactive: 0.0091.

For the compound `CC(=O)NC1CCSC1=O` (centres undefined) [Citiolone], the cell death is inactive: 0.123.

For `N#C[C@@H]1C[C@@H]2C[C@@H]2N1C(=O)[C@@H](N)C12CC3CC(CC(O)(C3)C1)C2` [Saxagliptin hydrate], the cell death is inactive: 0.337.

For `C#CCN(C)CCCOc1ccc(Cl)cc1Cl` [Clorgyline hydrochloride], the cell death was inactive: 0.124.

On to `COc1ccc(C(C)=O)c(O)c1` [Paeonol], for which the cell death was inactive: 0.0407.

Consider `O=C1[C@H](CC[C@H](O)c2ccc(F)cc2)[C@@H](c2ccc(O)cc2)N1c1ccc(F)cc1` [Ezetimibe], for which the cell death is inactive: 0.16.

As for `Cc1cc(C)c(S(=O)(=O)N(CCc2cccc(Br)c2)Cc2ccc(-c3cccc(S(C)(=O)=O)c3)cc2)c(C)c1`, the cell death was inactive: 0.116.

`CO[C@H]1/C=C/O[C@@]2(C)Oc3c(C)c(O)c4c(c3C2=O)C2=NC3(CCN(CC(C)C)CC3)NC2=C(NC(=O)/C(C)=C\C=C\[C@H](C)[C@H](O)[C@@H](C)[C@@H](O)[C@@H](C)[C@H](OC(C)=O)[C@@H]1C)C4=O` [Rifabutin]: the cell death was inactive: 0.445.

Consider `CC(=O)Oc1cc(C)c(OC(C)=O)c2ccccc12` [Menadiol Diacetate], for which the cell death is inactive: 0.0859.

For `C[C@@]12CC[C@@H]3[C@@](CC[C@H]4[C@@]3(C)CCC[C@@]4(C)C(=O)O)(CC1=O)C2` [Isosteviol], the cell death was inactive: 0.0623.

As for `Cc1ccc(S(=O)(=O)NC(=O)NN2CC3CCCC3C2)cc1` (centres undefined) [Gliclazide], the cell death was inactive: 0.362.
